According to PubChem BioAssay AID488837 (National Center for Advancing Translational Sciences (NCATS), 2010):
About 20 (0.006%) of roughly 330,000 compounds were called active. Inconclusive results, whose numbers are uncertain, are shown with a selection of clear calls. Calls come from the whole dose curve; as a rule, active = well fitted inhibition curve with a large enough effect; inconclusive = small, poorly fitted or top-dose-only effect, or effect the other way; inactive = flat fitted curve, though single readings scatter. Potencies beside an inconclusive call are fits to weak or partial responses and may not hold up.

By UniProt entry, the sequences of proteins in these tests, tags left out. Where a name states a change or a piece, a line headed by the entry shows the natural chain unless it says otherwise.
UniProt O00167: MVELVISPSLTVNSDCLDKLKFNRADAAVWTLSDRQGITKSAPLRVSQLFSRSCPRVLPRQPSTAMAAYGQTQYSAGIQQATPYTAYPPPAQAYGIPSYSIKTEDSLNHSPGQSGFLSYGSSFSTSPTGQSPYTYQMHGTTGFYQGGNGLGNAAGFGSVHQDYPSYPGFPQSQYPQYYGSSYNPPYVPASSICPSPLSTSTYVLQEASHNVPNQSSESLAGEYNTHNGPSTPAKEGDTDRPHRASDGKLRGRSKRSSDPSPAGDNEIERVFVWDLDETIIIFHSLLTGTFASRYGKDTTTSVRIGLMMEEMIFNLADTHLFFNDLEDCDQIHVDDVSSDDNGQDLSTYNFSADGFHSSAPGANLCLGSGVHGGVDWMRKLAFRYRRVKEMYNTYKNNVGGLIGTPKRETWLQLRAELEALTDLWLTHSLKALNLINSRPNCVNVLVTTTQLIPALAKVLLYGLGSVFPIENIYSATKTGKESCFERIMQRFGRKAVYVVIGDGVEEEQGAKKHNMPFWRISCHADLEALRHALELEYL

target: Protein phosphatase EYA2 (Homo sapiens) (UniProt O00167); test: qHTS Assay for Inhibitors of the Phosphatase Activity of Eya2; details: recombinant Eya2, OMFP fluorescence dephosphorylation (OMFP is methylfluorescein phosphate); activity, negative = inhibition: at 76.9 µM (top of the series) unless noted
In short: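 Eya2 protein (added as 0.2 uM solution) was preincubated with compound for 10 min at ambient temperature in 50 mM HEPES pH 7.5, 50 mM NaCl, 5 uM MgCl2, 0.05% BSA, 1 mM DTT. OMFP (added at 50 uM) then reacted 10 min; fluorescence read at 485/525 nm.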
% is set by controls: 0 for no effect and ±100 for the full control effect; potency is the fitted concentration of half-maximal effect.

| SMILES | Potency | activity, negative = inhibition |
| --- | --- | --- |
| Cc1ccc([N+](=O)[O-])cc1NC(=O)Nc1ccc(S(N)(=O)=O)cc1 | inconclusive: 100 µM [inhibitor, single point] | – |
| O=[N+]([O-])c1ccc(Cl)c(CN2CCCCCC2)c1 | inconclusive: 28.2 µM [inhibitor, partial curve, poor fit] | – |
| COc1ccc(NC(=O)CCCn2cc([N+](=O)[O-])cn2)cc1 | inconclusive: 89.1 µM [inhibitor, single point] | – |
| O=C(CSc1ncn(-c2ccccc2)n1)Nc1nncs1 | inconclusive: 22.4 µM [inhibitor, single point] | – |
| O=C(O)c1ccc(-n2cccc2/C=N\NC(=O)c2cc3cc(Br)ccc3o2)cc1 | inconclusive: 70.8 µM [inhibitor, partial curve, poor fit] | – |
| O=C(O)Cc1ccc(NC(=O)COc2ccc3ccccc3c2)cc1 | – | inactive: -5.72% |
| Cc1nc2sc(-c3ccccc3)cc2c(=O)n1N | inconclusive: 35.5 µM [inhibitor, partial curve, poor fit] | – |
| COc1ccc(S(=O)(=O)CC2(O)CCN(C(=O)C(C)(C)C)CC2)cc1 | inconclusive: 112 µM [inhibitor, single point] | – |
| Cc1ccc2nc(/C(C#N)=C/c3ccc(-c4ccccc4C(=O)O)o3)[nH]c2c1 | inconclusive: 25.1 µM [activator, partial curve] | – |
| Cc1cc(C(=O)COC(=O)CCc2nc3ccccc3c(=O)[nH]2)c(C)n1CC1CCCO1 (centres undefined) | inconclusive: 89.1 µM [inhibitor, single point] | – |
| Cc1ccc(S(=O)(=O)N2CCCC(C(=O)NCCc3ccccc3)C2)cc1 (centres undefined) | inconclusive: 25.1 µM [inhibitor, single point] | – |
| OCc1ccnc2c(O)cccc12 | – | inactive: -10.7% |
| C/C(=N\NC(=O)c1cc(C)nc2ccccc12)c1ccccn1 | – | inactive: -11% |
| CCCN(CCC)CCNC(=O)C1CCN(S(=O)(=O)c2cccc3nsnc23)CC1 | inconclusive: 112 µM [inhibitor, single point] | – |
| CCOC(=O)NC1=NCC(C)S1 (centres undefined) | – | inactive: 10.4% |
| COc1ccccc1NC(=S)NC(=O)C(C)(C)C | – | inactive: 6.19% |
| Cc1cccc(NC(=O)CSCC(=O)Nc2ccc(S(=O)(=O)N3CCCCC3)cc2)c1 | inconclusive: 70.8 µM [inhibitor, single point] | – |
| O=C1/C(=C\c2cc([N+](=O)[O-])ccc2O)SC(=S)N1Cc1ccc(Cl)cc1 | inconclusive: 50.1 µM [activator, partial curve] | – |
| C=CCN1CCN(C(=O)CSc2ccccc2)CC1 | inconclusive: 158 µM [inhibitor, single point] | – |
| Cc1ccc(-c2cc(C(=O)NCc3ccccn3)c3ccccc3n2)cc1 | – | inactive: -4.48% |
| Cc1cc(=O)[nH]c(SCC(=O)Nc2ccc(S(N)(=O)=O)cc2)n1 | inconclusive: 28.2 µM [inhibitor, partial curve] | – |
| Brc1c(-c2ccccc2)nc2n1Cc1ccccc1-2 | inconclusive: 100 µM [inhibitor, single point] | – |
| Cc1ccc(S(=O)(=O)Nc2cccc(C(=O)NCC(c3ccco3)N(C)C)c2)cc1F (centres undefined) | inconclusive: 79.4 µM [inhibitor, single point] | – |

Record cards (already shown). Values in the order: Potency	activity, negative = inhibition
O=C(O)c1ccc(-n2cccc2/C=N\NC(=O)c2cc3cc(Br)ccc3o2)cc1 in the list: inconclusive: 70.8 µM [inhibitor, partial curve, poor fit]	–
O=C(O)Cc1ccc(NC(=O)COc2ccc3ccccc3c2)cc1 in the list: –	inactive: -5.72%
CCOC(=O)NC1=NCC(C)S1 (centres undefined) in the list: –	inactive: 10.4%

Remaining list, next part:

| SMILES | Potency | activity, negative = inhibition |
| --- | --- | --- |
| CN(Cc1cccs1)C(=O)CCCc1c[nH]c2ccccc12 | inconclusive: 100 µM [inhibitor, partial curve, poor fit] | – |
| CCn1nc(NC(=O)Cc2ccc(OC)cc2)c2cc3cccc(C)c3nc21 | – | inactive: -0.601% |
| COc1ccc(S(=O)(=O)Nc2ccc3c(c2)C(=O)N([C@H](C)CO)C[C@H](C)[C@H](CN(C)Cc2ccc(C(=O)O)cc2)O3)cc1 | inconclusive: 70.8 µM [inhibitor, single point] | – |
| Cc1ccc(NC(=O)CCC(=O)N/N=C/c2ccc(O)cc2O)cc1 | inconclusive: 17.8 µM [inhibitor, single point] | – |
| CC(=O)Nc1ccc(NC2=C/C(=N/S(=O)(=O)c3cccs3)c3ccccc3C2=O)cc1 | – | inactive: -5.83% |
| CCOc1ccc(OCCC(=O)OCC(=O)NNC(=O)c2ccccc2)cc1 | – | inactive: 8.23% |
| Cc1cc(N2CCCC2)ccc1/C=C1\NC(=S)N(C)C1=O | inconclusive: 79.4 µM [activator, partial curve] | – |
| Cc1ccc(Cn2nnc3c(=O)[nH]c(C4CCN(S(=O)(=O)Cc5ccccc5)CC4)nc32)cc1 | inconclusive: 112 µM [inhibitor, partial curve, poor fit] | – |
| CCOC(=O)C1(CCOC)CCN(Cc2ccc(COC)o2)CC1 | inconclusive: 15.8 µM [inhibitor, single point] | – |
| C/C(=N\NC(=O)c1ccccc1C)c1cccnc1 | inconclusive: 100 µM [inhibitor, single point] | – |
| Cc1ccc(OCC(=O)O/N=C(\N)c2cccnc2)cc1 | inconclusive: 63.1 µM [inhibitor, partial curve, poor fit] | – |
| CC1CN(C(=O)CCC(=O)NC2CCN(Cc3ccccc3)CC2)c2ccccc2O1 (centres undefined) | inconclusive: 398 µM [inhibitor, single point] | – |
| O=C(COc1nncc2ccccc12)Nc1ccc(F)c(F)c1 | inconclusive: 178 µM [inhibitor, partial curve, poor fit] | – |
| COc1ccccc1-c1coc2c(CN3CCOCC3)c(O)ccc2c1=O | inconclusive: 79.4 µM [inhibitor, partial curve, poor fit] | – |
| CC(=O)OC[C@H]1COc2ccc3ccccc3c2[C@H]1N(C)C(C)=O | inconclusive: 89.1 µM [inhibitor, single point] | – |
| Cc1cccc(N2C(=O)CN=C2Nc2nc(C)cc(C)n2)c1 | – | inactive: -4.67% |
| O=c1ccc(Cl)n[nH]1 | inconclusive: 89.1 µM [inhibitor, single point] | – |
| O=C(Nc1ccccc1)N1CCSc2cc(Cl)ccc21 | inconclusive: 20 µM [inhibitor, single point] | – |
| CCOC(=O)CSC1=C(C#N)C(c2ccccc2OCC)C(C#N)C(=O)N1 (centres undefined) | – | inactive: 4.08% |
| Cc1ccc(C)c(S(=O)(=O)Nc2ccc(C(=O)NCC(c3ccco3)N(C)C)cc2)c1 (centres undefined) | inconclusive: 15.8 µM [inhibitor, single point] | – |
| COc1ccccc1CNC(=O)c1ccc(SC)cc1OC | inconclusive: 31.6 µM [inhibitor, partial curve] | – |
| Nc1nc(NCCCN2CCOCC2)nc(Nc2cccc(F)c2)c1[N+](=O)[O-] | – | inactive: -3.96% |
| COc1cc2c(cc1OC)CN(CC(=O)Nc1ccc(F)cc1)CC2 | inconclusive: 200 µM [inhibitor, partial curve] | – |

| SMILES | Potency | activity, negative = inhibition |
| --- | --- | --- |
| Cc1nnsc1SC(C)C(=O)O (centres undefined) | – | inactive: 1.58% |
| CCOC(=O)N1CCN(C(=O)C(NC(=O)c2ccco2)C(C)C)CC1 (centres undefined) | inconclusive: 25.1 µM [inhibitor, single point] | – |
| CCC(=NCc1ccccc1)C1=C(O)C(C(=O)OC)C(C)(C)CC1=O (centres undefined) | – | inactive: 5.04% |
| CC(=O)Nc1ccc2nc(NC(=O)COc3ccccc3C)sc2c1 | – | inactive: 4.66% |
| COc1cc(OC)c(NS(=O)(=O)c2c(C(=O)N3CCCCC3)c(C)n(C)c2C)cc1Cl | inconclusive: 28.2 µM [inhibitor, single point] | – |
| CC(C)N(Cc1ccccc1)C(=O)CN1C(=O)NC2(CCCC2)C1=O | inconclusive: 28.2 µM [inhibitor, partial curve] | – |
| Cc1nn(C)c2c(=O)c(=O)c2n(C)[nH]1 | inconclusive: 17.8 µM [inhibitor, single point] | – |
| Cc1cc(Cl)ccc1NNC(=O)CCc1ccccc1 | inconclusive: 100 µM [inhibitor, single point] | – |
| CC(CC(=O)Nc1ncc([N+](=O)[O-])s1)c1ccccc1 (centres undefined) | inconclusive: 100 µM [inhibitor, single point] | – |
| O=C(CC12CC3CC(CC(C3)C1)C2)NC(=S)NCc1ccco1 | – | inactive: -0.787% |
| COc1ccc(CC(=O)NNC(=O)c2cc(Cl)ccc2OC)cc1 | – | inactive: -12.5% |
| Cc1ccc(C)c(SCc2noc(C(=O)NC(C)C)c2C(=O)O)c1 | – | inactive: -5.25% |
| CC(=O)c1sc(NC(=O)C2(F)C(F)(F)C(F)(F)C(F)(F)C(F)(F)C2(F)F)nc1C | – | inactive: 17.2% |
| CN(C)CCNC(=O)c1ccccc1-c1cc2ccccc2c(=O)o1 | inconclusive: 100 µM [inhibitor, single point] | – |
| O=C(O)/C=C/c1cn(-c2ccccc2)nc1-c1ccccc1 | inconclusive: 447 µM [inhibitor, partial curve, poor fit] | – |
| Cc1c(Br)c(O)c(Br)c2sc(=O)oc12 | inconclusive: 22.4 µM [inhibitor, single point] | – |
| CC(=O)NC(Cc1cc(C)ccc1C)C(=O)N1CCN(C(=O)c2ccc([N+](=O)[O-])cc2)CC1 (centres undefined) | inconclusive: 20 µM [inhibitor, single point] | – |
| CCOC(=O)C1CCN(Cc2ccccn2)CC1 | inconclusive: 10000 µM [inhibitor, partial curve, poor fit] | – |
| Cc1ccccc1S(=O)(=O)Cc1ccc(C(=O)NCCCN2CCC(C)CC2)o1 | inconclusive: 20 µM [inhibitor, single point] | – |
| CCc1nnc(NC(=O)CSc2nnc(COc3ccccc3)n2Cc2ccccc2)s1 | inconclusive: 22.4 µM [inhibitor, single point] | – |
| CCN1/C(=C/C=C/c2oc3ccc(-c4ccccc4)cc3[n+]2CC)Oc2ccc(-c3ccccc3)cc21 | inconclusive: 12.6 µM [activator, partial curve] | – |
| O=C(COc1ccccc1Cl)c1ccc2c(c1)CCCC2 | inconclusive: 63.1 µM [inhibitor, partial curve] | – |
| O=[N+]([O-])c1ccc(NCc2ccccc2N2CCC(CO)CC2)nc1 | inconclusive: 100 µM [inhibitor, single point] | – |
